For at least one compound, name, drawing or mass did not settle the structure.
Tested on: TLR2
Assay: TNF-α production by splenocytes in response to TLR2 ligand PGN
Assay type: cell-based, C57BL/6 mice
Conditions: PGN 1, 10, 100 ng/ml; compared to control
Procedure: OPLT was dissolved in sterile PBS at 100 μM, and pH was adjusted to approximately 7.5. Splenocytes from naïve C57BL/6 mice were stained with CFSE, prepared, cultured, and dosed. Cells were seeded at 2×10^5 cells/well.
To evaluate the effects of OPLT on cytokine production by splenocytes in response to different TLR ligands, splenocytes were incubated with one of the following TLR ligands in triplicate: PGN, LPS, ODN CPG, dsRNA, or ssRNA, as per group assignment. Cells were then treated as follows: • Control: No treatment; • OPLT: Cells were dosed with 1.85 μg/ml; • Dexamethasone: Cells were dosed with 100 μg/ml; • Rapamycin: Cells were dosed with 625 μg/ml. Cells were incubated for 48 hours before collecting the supernatant for TNF-α analysis.
The supernatant was collected for TNF-α analysis by ELISA.

How did the “effect on splenocytes' TNF-α response to the TLR2 ligand PGN (in words)” value turn out when `CO[C@H]1C[C@@H]2CC[C@@H](C)[C@@](O)(O2)C(=O)C(=O)N2CCCC[C@H]2C(=O)O[C@H]([C@H](C)C[C@@H]2CC[C@@H](O)[C@H](OC)C2)CC(=O)[C@H](C)/C=C(\C)[C@@H](O)[C@@H](OC)C(=O)[C@H](C)C[C@H](C)/C=C/C=C/C=C/1C` [Rapamycin, rapamycin] was run?
The value was “abrogated splenocytes' response to the TLR2 ligand PGN”.
